Reference: patent EP3502102A1, “STING INHIBITORS” (ECOLE POLYTECHNIQUE FEDERALE DE LAUSANNE (EPFL), priority 2017, dated 2019)
At least one structure is not confirmed: it was looked up by name or label, or the drawing left a doubt.

Experiments:
[1] = test system: RIG-I pathway; test: Type I IFN bioassay of BMDMs stimulated with triphosphate RNA; type: cell-based, mouse
[2] = molecular target: T1, mmSTING (Mus musculus, UniProt Q3TBT3); test: Gel-based competition assay against C-176-22 labelling; type: binding; conditions: HEK293T expressing mmSTING; 30 min
T1 construct: expressed in transfected cells; host or cells: HEK293T (lentiviral transduction, induced overnight)
T1 sequence (Q3TBT3 1-378): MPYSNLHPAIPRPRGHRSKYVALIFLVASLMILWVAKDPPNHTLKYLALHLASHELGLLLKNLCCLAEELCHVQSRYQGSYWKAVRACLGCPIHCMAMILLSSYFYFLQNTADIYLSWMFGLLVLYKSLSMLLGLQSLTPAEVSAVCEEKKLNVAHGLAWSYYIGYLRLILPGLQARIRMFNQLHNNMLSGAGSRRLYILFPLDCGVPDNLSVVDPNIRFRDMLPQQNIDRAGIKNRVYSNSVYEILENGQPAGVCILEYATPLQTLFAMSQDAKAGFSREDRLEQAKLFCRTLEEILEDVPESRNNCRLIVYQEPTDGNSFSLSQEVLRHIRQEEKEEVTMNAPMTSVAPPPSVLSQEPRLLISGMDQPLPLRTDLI

[3] = molecular target: T2, STING (Mus musculus, UniProt Q3TBT3); test: High-throughput screen and secondary screen in HEK293T cells expressing mCherry-STING, cdG-Syn versus RIG-I; type: cell-based; set-up: expressed in transfected cells; host or cells: HEK293T; conditions: primary screen and counter-screen; library compounds 10 µM
T2 sequence (Q3TBT3 1-378): T1 sequence (Q3TBT3 1-378)
Protocol: Reporter activity was measured 16 h after compound treatment. A nonlinear regression analysis was performed. […] Circles indicate substitutes compared to C-176. d, e, Chemical compounds from ([…]) in conjunction with IFN-• luciferase reporter, respectively. b, e, f, Values of inhibitor-treated cells were normalized to DMSO-treated cells. […] Cytokine levels were normalized to DMSO-treated control cells. A nonlinear regression analysis was performed for cGAMP stimulation. b, c, BMDMs were pre-treated with C-178 (0.25 µM) and stimulated with cGAMP, cyclic di-GMP, CMA, 90mer dsDNA or LPS for 3 h. The induction of Ifnb1 mRNA levels was assessed by RT-qPCR. d, Heatmaps of RNA sequencing analysis of BMDMs treated with DMSO or CMA and with or without addition of C-178. […] Reporter activity was measured 16 h after transfection and values were normalized to DMSO-treated control cells. c, BMDMs were treated with C-178 (0.25 µM) for 1 h, washed or left untreated and after an additional hour stimulated with cGAMP. […] Flag-STING was immunoprecipitated from whole cell lysate and analysed by autoradiography. In parallel, cell lysates were analysed by immunoblotting for p-TBK1 and STING. d, HEK293T cells expressing STING were treated as indicated (C-178 (1 µM)) and stimulated with CMA for 1.5 h. […] Depicted genes were measured by RT-qPCR.

[4] = molecular target: T2, STING; test: Metabolic labelling with [3H] palmitate, Flag-STING in HEK293T cells; type: cell-based; set-up: expressed in transfected cells; host or cells: HEK293T; conditions: HEK293T expressing Flag-STING; 1 µM; CMA 2 h
Protocol: Reporter activity was measured 16 h after compound treatment. A nonlinear regression analysis was performed. […] Circles indicate substitutes compared to C-176. d, e, Chemical compounds from (c) were tested at 0.5 µM for inhibitory activity in HEK293T cells transfected with STING (e) or RIG-I (f) in conjunction with IFN-• luciferase reporter, respectively. b, e, f, Values of inhibitor-treated cells were normalized to DMSO-treated cells. […] Cytokine levels were normalized to DMSO-treated control cells. A nonlinear regression analysis was performed for cGAMP stimulation. b, c, BMDMs were pre-treated with C-178 (0.25 µM) and stimulated with cGAMP, cyclic di-GMP, CMA, 90mer dsDNA or LPS for 3 h. The induction of Ifnb1 mRNA levels was assessed by RT-qPCR. d, Heatmaps of RNA sequencing analysis of BMDMs treated with DMSO or CMA and with or without addition of C-178. […] Reporter activity was measured 16 h after transfection and values were normalized to DMSO-treated control cells. c, BMDMs were treated with C-178 (0.25 µM) for 1 h, washed or left untreated and after an additional hour stimulated with cGAMP. […] Flag-STING was immunoprecipitated from whole cell lysate and analysed by autoradiography. In parallel, cell lysates were analysed by immunoblotting for p-TBK1 and STING. d, HEK293T cells expressing STING were treated as indicated (C-178 (1 µM)) and stimulated with CMA for 1.5 h. […]

O=C(Nc1ccc2c(c1)oc1ccccc12)c1ccc([N+](=O)[O-])o1 [C-178, N-dibenzo[b,d]furan-3-yl-5-nitro-2-furamide]
production of type I IFNs [1]: did not affect | blockage of labelling of STING by C-176-22 [2]: dose-dependently blocked | IFN signal in response to cdG-Syn/STING versus RIG-I [3]: selectively reduced the IFN signal in response to cdG-Syn/STING but not to RIG-I | [^3H] palmitate labelling of STING [4]: severely reduced
